The results in this text go back to publication PMC5859036.

Chains of the proteins cited; added tags and fusions are not shown.
UniProt P07355: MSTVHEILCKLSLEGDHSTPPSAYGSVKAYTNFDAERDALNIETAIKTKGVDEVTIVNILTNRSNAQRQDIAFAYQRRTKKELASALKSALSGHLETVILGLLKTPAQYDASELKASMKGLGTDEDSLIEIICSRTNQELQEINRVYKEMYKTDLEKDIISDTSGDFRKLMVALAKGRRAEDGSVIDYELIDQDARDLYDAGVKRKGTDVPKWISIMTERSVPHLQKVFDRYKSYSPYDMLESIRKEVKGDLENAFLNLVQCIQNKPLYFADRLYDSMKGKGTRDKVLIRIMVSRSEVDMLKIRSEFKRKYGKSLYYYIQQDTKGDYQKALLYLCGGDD

In this assay the target is T1, stomatin-like protein-2 (SLP-2) (human) (UniProt Q9UJZ1).
T1 sequence: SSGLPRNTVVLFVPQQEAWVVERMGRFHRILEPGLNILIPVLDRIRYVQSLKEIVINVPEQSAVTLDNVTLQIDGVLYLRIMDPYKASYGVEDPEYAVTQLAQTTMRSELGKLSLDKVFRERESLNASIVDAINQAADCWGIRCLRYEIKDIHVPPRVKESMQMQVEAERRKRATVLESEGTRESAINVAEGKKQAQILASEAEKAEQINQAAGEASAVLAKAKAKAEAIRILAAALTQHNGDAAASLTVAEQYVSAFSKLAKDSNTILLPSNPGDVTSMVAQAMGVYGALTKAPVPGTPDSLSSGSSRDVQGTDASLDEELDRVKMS
As to the kind of experiment: affinity purification with mass spectrometry; agarose-conjugated rabbit polyclonal anti-SLP-2 antibody, 10 mg lysate of SLP-2 overexpressing A549 cells in modified RIPA buffer, overnight; bands cut from silver-stained SDS gel, trypsin, LC-MS/MS.

No constants are given. Whether binding was seen depends on the method and setting. In cells and extracts the contact can be indirect. These calls come from enrichment with a bait or labelling near it, and not all partners need be listed.

On to annexin A2 (from UniProt P07355 1-339), for which the binding entry is on record as “binds”.
